Test results taken from the supplement of paper PMC12889115.
Some of the results follow. Values are raw readings; no control value is given beside them.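 In the initial screen, polymyxin B was used at a concentration that permeabilizes Salmonella's outer membrane but not its inner membrane. Maximum growth was set by DMSO wells with or without polymyxin B. Since plates varied, data were ranked per plate, and compounds giving the lowest OD600 advanced as hits.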

Test system: Salmonella enterica serovar Typhimurium SL1344
Experiment: bacterial growth OD600 after 18 h with compound and polymyxin B; higher = more bacterial growth (less inhibition)
Details: 50 µM, Mueller-Hinton broth

| SMILES | bacterial growth OD600 (polymyxin B 0.75 µg/mL) | bacterial growth OD600 (polymyxin B 1 µg/mL) |
| --- | --- | --- |
| CC(C)NC1CC(C)(C)Cc2nc(N3CCC(O)CC3)ncc21 (stereo not given) | 0.935 | – |
| CS(=O)(=O)N1CCc2onc(-c3ccc(-c4ccccc4)cc3)c2C1 | 0.954 | – |
| CCN(C)c1ccc(C(=O)NCCCc2c(C)noc2C)cn1 | – | 1.05 |
| CSc1nccc(-c2cc(Cl)c3c(c2)CC(CNC(=O)c2ccnn2C)O3)n1 (stereo not given) | 0.687 | – |
| CCn1cc(CN2CCC(C3(CC)NC(=O)N(CCc4ccc(OC)cc4)C3=O)CC2)c(C)n1 (stereo not given) | 0.85 | – |
| Cn1cnnc1SCCNC1CCN(c2ccc(CC(=O)NCCc3cccc(F)c3)cc2)CC1 | 0.813 | – |
| COc1cccc(CC(=O)N2CCC(C3(C)NC(=O)N(Cc4cccc(OC)c4OC)C3=O)CC2)c1 (stereo not given) | 0.886 | – |
| O=C(c1ccco1)N1CCC2(CCCN(Cc3cccc(F)c3F)C2)C1 (stereo not given) | – | 0.928 |
| CCn1cc(C(=O)N2CCC(C3CCN(Cc4cccnc4)CC3)C2)cn1 (stereo not given) | 0.859 | – |
| Cc1nc(CNC(=O)C2CCCN(C3CCN(C(C)C)CC3)C2)cs1 (stereo not given) | 0.944 | – |
| COc1cccc(CCC2CCCN(C(=O)C(C)(C)C)C2)c1 (stereo not given) | 0.644 | – |
| NC(=O)C1(N2CCCCC2)CCN(Cc2nc(-c3ccccc3)no2)CC1 | – | 0.806 |
| COc1ccccc1OCc1cc(C(=O)NC2CCCCCC2)no1 | 0.15 | – |
| COCc1cc(CN2CCOC(Cc3ccc(F)cc3)C2)ccc1OC (stereo not given) | 0.806 | – |
| CC(C)CN(C)c1ccc(C(=O)N2CCCCC2CCn2cccn2)cn1 (stereo not given) | – | 0.601 |
| COc1cc(OC)cc(C(=O)NCC2CCCN(Cc3cccc(C)n3)C2)c1 (stereo not given) | – | 0.953 |
| Cc1nn(C)cc1CN(C)CC1(O)CCCN(Cc2ccc(F)c(F)c2)C1=O (stereo not given) | – | 0.973 |
| CN(Cc1ccc(F)cc1)c1ccc(-c2nc(C3CC3)no2)cn1 | 0.187 | – |
| CCC(C)NC(=O)c1coc(CN2CCN(Cc3ccccc3)CC2)n1 (stereo not given) | – | 0.84 |
| CC(C)c1nc(CNC(=O)C2CCC(=O)N(Cc3ccc(Cl)cc3)C2)no1 (stereo not given) | – | 0.81 |
